This is an account of results in paper PMC7351111.

By UniProt entry, the sequences of proteins in these tests, tags left out.
UniProt Q9BXW9: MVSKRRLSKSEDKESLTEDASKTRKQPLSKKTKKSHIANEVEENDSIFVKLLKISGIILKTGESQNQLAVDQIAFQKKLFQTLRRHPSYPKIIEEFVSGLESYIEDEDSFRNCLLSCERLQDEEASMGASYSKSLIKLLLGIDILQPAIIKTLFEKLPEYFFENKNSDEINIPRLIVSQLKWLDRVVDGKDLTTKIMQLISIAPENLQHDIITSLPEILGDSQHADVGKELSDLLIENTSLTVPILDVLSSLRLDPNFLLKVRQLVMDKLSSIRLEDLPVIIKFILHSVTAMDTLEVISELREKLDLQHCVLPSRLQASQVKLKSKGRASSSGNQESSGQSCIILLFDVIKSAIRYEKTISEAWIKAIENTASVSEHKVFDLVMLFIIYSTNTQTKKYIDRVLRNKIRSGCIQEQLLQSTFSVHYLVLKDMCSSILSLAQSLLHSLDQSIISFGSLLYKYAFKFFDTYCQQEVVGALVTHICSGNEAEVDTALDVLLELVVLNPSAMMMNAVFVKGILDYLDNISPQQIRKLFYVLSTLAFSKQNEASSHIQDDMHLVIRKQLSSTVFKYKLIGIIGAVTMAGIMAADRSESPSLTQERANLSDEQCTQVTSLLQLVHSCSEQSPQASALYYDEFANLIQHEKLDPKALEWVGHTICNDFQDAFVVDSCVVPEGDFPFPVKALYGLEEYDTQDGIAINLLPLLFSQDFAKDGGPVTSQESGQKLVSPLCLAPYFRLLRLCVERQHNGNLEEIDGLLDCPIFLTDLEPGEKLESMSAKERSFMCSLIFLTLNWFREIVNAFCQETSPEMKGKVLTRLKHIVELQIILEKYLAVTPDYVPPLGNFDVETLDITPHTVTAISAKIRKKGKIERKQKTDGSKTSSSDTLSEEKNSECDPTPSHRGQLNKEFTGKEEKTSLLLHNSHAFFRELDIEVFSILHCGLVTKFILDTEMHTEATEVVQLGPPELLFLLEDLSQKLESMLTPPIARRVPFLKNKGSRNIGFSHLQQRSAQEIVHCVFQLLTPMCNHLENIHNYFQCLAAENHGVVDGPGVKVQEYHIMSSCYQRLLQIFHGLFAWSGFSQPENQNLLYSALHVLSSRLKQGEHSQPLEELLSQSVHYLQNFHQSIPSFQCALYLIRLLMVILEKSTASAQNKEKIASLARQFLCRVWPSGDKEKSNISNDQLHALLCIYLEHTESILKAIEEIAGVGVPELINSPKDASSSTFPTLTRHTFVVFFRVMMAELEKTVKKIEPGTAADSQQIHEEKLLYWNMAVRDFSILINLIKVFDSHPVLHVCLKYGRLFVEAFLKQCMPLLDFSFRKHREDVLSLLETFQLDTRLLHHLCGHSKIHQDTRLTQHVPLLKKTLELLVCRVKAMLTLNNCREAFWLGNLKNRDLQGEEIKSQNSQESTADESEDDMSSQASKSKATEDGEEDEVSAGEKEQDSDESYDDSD
UniProt P39748: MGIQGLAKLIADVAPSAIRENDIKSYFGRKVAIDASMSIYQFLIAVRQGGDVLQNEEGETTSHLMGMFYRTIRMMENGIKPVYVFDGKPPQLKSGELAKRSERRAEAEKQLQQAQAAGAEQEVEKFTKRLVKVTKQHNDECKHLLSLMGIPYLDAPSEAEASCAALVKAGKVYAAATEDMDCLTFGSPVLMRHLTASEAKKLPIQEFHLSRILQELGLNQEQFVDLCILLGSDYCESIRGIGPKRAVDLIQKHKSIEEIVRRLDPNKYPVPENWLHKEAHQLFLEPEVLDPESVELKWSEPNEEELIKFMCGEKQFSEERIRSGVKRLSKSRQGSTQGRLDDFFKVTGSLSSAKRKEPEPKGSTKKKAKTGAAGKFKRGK
UniProt P28340: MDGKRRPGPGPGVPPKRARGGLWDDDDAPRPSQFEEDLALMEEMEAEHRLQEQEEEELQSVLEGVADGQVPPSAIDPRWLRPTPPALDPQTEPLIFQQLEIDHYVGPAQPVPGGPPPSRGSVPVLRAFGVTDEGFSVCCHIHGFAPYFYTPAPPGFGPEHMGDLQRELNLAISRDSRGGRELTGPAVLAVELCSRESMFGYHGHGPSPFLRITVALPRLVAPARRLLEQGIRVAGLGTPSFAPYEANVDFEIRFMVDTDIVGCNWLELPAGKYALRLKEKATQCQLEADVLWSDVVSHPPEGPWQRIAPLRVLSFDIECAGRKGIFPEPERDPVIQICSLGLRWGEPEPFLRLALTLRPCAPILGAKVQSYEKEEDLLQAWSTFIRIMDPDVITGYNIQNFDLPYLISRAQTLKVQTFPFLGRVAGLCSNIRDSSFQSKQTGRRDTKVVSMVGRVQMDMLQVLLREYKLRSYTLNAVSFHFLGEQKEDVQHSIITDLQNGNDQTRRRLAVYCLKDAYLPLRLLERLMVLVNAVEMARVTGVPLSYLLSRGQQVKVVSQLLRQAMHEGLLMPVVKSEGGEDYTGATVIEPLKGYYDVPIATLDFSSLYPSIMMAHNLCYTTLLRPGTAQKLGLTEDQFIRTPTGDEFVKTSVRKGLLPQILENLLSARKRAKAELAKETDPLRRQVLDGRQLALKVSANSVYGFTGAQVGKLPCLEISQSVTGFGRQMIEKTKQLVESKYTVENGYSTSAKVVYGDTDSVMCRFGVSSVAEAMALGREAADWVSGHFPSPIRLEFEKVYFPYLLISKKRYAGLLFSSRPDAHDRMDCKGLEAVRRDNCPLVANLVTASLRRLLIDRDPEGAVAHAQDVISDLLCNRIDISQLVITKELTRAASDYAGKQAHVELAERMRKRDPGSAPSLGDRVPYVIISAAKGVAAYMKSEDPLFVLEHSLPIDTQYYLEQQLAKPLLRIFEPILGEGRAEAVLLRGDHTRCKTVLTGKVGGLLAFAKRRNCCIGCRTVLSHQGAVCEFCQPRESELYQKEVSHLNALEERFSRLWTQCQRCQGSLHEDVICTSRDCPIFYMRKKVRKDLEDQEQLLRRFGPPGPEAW
UniProt P49005: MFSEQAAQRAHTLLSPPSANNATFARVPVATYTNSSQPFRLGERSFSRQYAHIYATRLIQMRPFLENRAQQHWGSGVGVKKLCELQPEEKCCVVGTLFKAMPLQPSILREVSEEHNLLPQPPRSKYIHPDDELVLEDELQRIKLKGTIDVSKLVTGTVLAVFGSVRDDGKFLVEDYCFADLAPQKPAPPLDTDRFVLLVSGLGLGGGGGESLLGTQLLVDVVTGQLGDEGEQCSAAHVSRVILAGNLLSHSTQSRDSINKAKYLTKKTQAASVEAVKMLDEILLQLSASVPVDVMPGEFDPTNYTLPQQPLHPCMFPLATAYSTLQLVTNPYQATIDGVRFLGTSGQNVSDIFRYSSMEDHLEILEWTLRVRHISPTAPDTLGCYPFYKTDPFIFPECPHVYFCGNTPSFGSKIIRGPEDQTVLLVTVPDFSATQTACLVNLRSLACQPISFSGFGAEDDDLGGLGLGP
UniProt Q92878: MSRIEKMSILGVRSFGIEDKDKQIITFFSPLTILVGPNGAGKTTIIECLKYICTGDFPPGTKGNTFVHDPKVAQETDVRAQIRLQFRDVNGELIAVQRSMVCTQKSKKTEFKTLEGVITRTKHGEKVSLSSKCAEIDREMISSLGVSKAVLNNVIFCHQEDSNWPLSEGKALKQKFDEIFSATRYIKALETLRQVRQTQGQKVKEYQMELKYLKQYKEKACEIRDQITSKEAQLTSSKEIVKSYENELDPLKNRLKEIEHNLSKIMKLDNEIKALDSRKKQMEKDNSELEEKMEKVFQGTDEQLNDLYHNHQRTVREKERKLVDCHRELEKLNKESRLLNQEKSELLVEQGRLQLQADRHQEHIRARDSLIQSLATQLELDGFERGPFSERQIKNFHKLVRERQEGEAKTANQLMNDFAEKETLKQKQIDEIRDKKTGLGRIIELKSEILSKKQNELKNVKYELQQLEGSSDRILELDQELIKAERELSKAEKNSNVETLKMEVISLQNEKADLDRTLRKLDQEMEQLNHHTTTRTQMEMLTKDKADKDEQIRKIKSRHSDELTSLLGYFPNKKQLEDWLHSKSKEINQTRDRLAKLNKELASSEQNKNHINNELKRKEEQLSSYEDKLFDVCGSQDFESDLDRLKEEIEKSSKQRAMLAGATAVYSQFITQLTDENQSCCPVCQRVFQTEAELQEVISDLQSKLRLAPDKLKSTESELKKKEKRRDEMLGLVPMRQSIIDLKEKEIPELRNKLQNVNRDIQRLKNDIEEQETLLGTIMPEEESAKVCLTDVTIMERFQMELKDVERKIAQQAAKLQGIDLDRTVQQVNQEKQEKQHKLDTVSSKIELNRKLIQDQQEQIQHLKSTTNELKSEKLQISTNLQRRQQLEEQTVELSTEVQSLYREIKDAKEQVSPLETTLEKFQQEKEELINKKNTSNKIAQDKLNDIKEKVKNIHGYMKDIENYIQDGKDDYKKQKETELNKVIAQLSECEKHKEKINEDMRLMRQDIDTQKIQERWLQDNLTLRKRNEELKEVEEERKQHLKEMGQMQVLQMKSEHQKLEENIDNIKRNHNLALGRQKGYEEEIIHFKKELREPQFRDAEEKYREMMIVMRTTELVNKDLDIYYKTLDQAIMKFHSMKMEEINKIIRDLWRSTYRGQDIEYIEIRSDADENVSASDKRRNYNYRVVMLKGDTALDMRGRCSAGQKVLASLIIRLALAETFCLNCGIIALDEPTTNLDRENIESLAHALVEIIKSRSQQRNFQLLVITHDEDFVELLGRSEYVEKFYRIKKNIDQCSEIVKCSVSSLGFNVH

These are yes or no findings as the source states them, for the method shown. Binding seen in cells or lysates may run through a third protein. These calls come from enrichment with a bait or labelling near it, and not all partners need be listed.

The assay deals with Flag-HA-FANCD2 (stably expressed in HeLa cells) (human) (UniProt Q9BXW9). Nature of the assay: affinity purification with mass spectrometry; Flag-HA-FANCD2 purified in two steps (M2 anti-FLAG agarose, then anti-HA Sepharose) from nuclear extract of HeLa S3 cells treated with 160 ng/ml mitomycin C overnight; nuclei treated with Benzonase and 1% formaldehyde for 3 min; TCA precipitate analysed by silver stain and MS/MS.
On to “FEN1 (endogenous, HeLa) (from UniProt P39748 1-380)”, for which the binding entry was “binds”.

As for “POLD1 (endogenous, HeLa) (from UniProt P28340 1-1107)”, the binding result is “binds”.

For “POLD2 (endogenous, HeLa) (from UniProt P49005 1-469)”, the binding entry is “binds”.

Turning to “RAD50 (endogenous, HeLa) (from UniProt Q92878 1-1312)”, the binding entry is listed as “binds”.
